Experimental data from article PMC11111408, “Concurrent inhibition of oncogenic and wild-type RAS-GTP for cancer therapy” (Nature, 2024).
“And” between values parts separate entries of the source, which are not always exact repeats. Identical values can stand only once. This continues a long series; more values of the same kind are listed elsewhere.

System: Pa16C cells expressing MEK1 mutants
Assay: Proliferation (Calcein AM) of Pa16C cells expressing MEK1 mutants
Format: cell-based, human
[1] = MEK1E102-I103del, inhibitor 300.000 nM
[2] = MEK1S218D/S222D, inhibitor 300.000 nM

SMILES: C#Cc1c(F)ccc2cc(O)cc(-c3ncc4c(N5CC6CCC(C5)N6)nc(OC[C@@]56CCCN5C[C@H](F)C6)nc4c3F)c12 [MRTX1133, reference compound]
- Proliferation of Pa16C cells expressing MEK1 mutant constructs (MEK1E102-I103del, inhibitor 11.111 nM): 89.2 and 88.5 and 73.09 and 79.09
- Proliferation of Pa16C cells expressing MEK1 mutant constructs (MEK1E102-I103del, inhibitor 33.333 nM): 81.6 and 79 and 79.45 and 70.91
- Proliferation of Pa16C cells expressing MEK1 mutant constructs (MEK1E102-I103del, inhibitor 100.000 nM): 76.6 and 64.2 and 72.13 and 59.86
- Proliferation of Pa16C cells expressing MEK1 mutant constructs [1]: 68.38 and 60.2 and 68.17 and 51.31
- Proliferation of Pa16C cells expressing MEK1 mutant constructs (MEK1K57N, inhibitor 11.111 nM): 119.3 and 129.8 and 106.44 and 131.83
- Proliferation of Pa16C cells expressing MEK1 mutant constructs (MEK1K57N, inhibitor 33.333 nM): 125 and 125.9 and 106.12 and 113.61
- Proliferation of Pa16C cells expressing MEK1 mutant constructs (MEK1K57N, inhibitor 100.000 nM): 100.9 and 105.3 and 97.72 and 104.41
- Proliferation of Pa16C cells expressing MEK1 mutant constructs (MEK1K57N, inhibitor 300.000 nM): 91.44 and 89.23
- Proliferation of Pa16C cells expressing MEK1 mutant constructs (MEK1Q56P, inhibitor 3.704 nM): 122.8 and 117.3 and 118.96
- Proliferation of Pa16C cells expressing MEK1 mutant constructs (MEK1Q56P, inhibitor 11.111 nM): 103.07 and 114.7 and 124.6 and 101.53
- Proliferation of Pa16C cells expressing MEK1 mutant constructs (MEK1Q56P, inhibitor 33.333 nM): 90.07 and 113.1 and 117.1 and 94.52
- Proliferation of Pa16C cells expressing MEK1 mutant constructs (MEK1Q56P, inhibitor 100.000 nM): 81.17 and 110.9 and 101.9 and 96.97
- Proliferation of Pa16C cells expressing MEK1 mutant constructs (MEK1Q56P, inhibitor 300.000 nM): 70.45 and 77
- Proliferation of Pa16C cells expressing MEK1 mutant constructs (MEK1S218D/S222D, inhibitor 11.111 nM): 98.22 and 105.68 and 105.56 and 94.99
- Proliferation of Pa16C cells expressing MEK1 mutant constructs (MEK1S218D/S222D, inhibitor 33.333 nM): 91.91 and 105.1 and 110.14 and 94.7
- Proliferation of Pa16C cells expressing MEK1 mutant constructs (MEK1S218D/S222D, inhibitor 100.000 nM): 92.41 and 101.61 and 95.02 and 87.17
- Proliferation of Pa16C cells expressing MEK1 mutant constructs [2]: 80.27 and 87.77 and 106.23 and 72.96
- Proliferation of Pa16C cells expressing MEK1 mutant constructs (MEK1WT, inhibitor 3.704 nM): 80.73 and 60.14
- Proliferation of Pa16C cells expressing MEK1 mutant constructs (MEK1WT, inhibitor 11.111 nM): 55.7 and 50.1 and 39.85 and 72.69 and 39.08
- Proliferation of Pa16C cells expressing MEK1 mutant constructs (MEK1WT, inhibitor 33.333 nM): 36.7 and 41.6 and 30.08 and 43.46 and 28.32
- Proliferation of Pa16C cells expressing MEK1 mutant constructs (MEK1WT, inhibitor 100.000 nM): 29.7 and 29.6 and 28.6 and 30.61 and 24.23
- Proliferation of Pa16C cells expressing MEK1 mutant constructs (MEK1WT, inhibitor 300.000 nM): 21.32 and 19.79 and 23.54

SMILES: O=C(Nc1ccc2[nH]nc(-c3ccncc3)c2c1)[C@@H]1CCN(CC(=O)N2CCN(c3ccc(-c4ncccn4)cc3)CC2)C1 [SCH772984]
- Proliferation of Pa16C cells expressing MEK1 mutant constructs [1]: 12.6 and 13.3 and 9.3
- Proliferation of Pa16C cells expressing MEK1 mutant constructs (MEK1Q56P, inhibitor 11.111 nM): 98.6 and 103.2 and 83.8 and 53.6
- Proliferation of Pa16C cells expressing MEK1 mutant constructs [2]: 8.9 and 15.1 and 8.4 and 11.1
- Proliferation of Pa16C cells expressing MEK1 mutant constructs (MEK1WT, inhibitor 33.333 nM): 21.9 and 15.2 and 11.4
